{"source": "patent US10954262B2", "about": "“Tunicamycin analogues” (Oxford University Innovation Limited, priority 2017, dated 2021)", "note": "Structures can show the parent of a compound that is named as a salt.", "data": [{"tested_on": "Bacillus subtilis (EC1524)", "assay_type": "cell-based", "details": "B. subtilis; minimal lethal dose / MIC; 800 μg/mL used when no cytotoxicity at 400 μg/mL", "values": [{"smiles": "CC(C)=CCC[C@H](C)CC(=O)NC1C(OC2OC(C[C@@H](O)[C@H]3O[C@@H](n4ccc(=O)[nH]c4=O)[C@H](O)[C@@H]3O)C(O)C(O)[C@H]2NC(=O)C[C@@H](C)CCC=C(C)C)OC(CO)[C@@H](O)C1O", "note": "(some centres unmarked) [Compound E1, Di-N-citronoyl-tunicamycin]", "RTI (Relative Therapeutic Index)": 128}, {"smiles": "CCCCCCC(=O)NC1C(OC2OC(C[C@@H](O)[C@H]3O[C@@H](n4ccc(=O)[nH]c4=O)[C@H](O)[C@@H]3O)C(O)C(O)[C@H]2NC(=O)CCCCCC)OC(CO)[C@@H](O)C1O", "note": "(some centres unmarked) [Compound E2, Di-N-heptanoyl tunicamycin]", "RTI (Relative Therapeutic Index)": 128}, {"smiles": "CCCCCCCC(=O)NC1C(OC2OC(C[C@@H](O)[C@H]3O[C@@H](n4ccc(=O)[nH]c4=O)[C@H](O)[C@@H]3O)C(O)C(O)[C@H]2NC(=O)CCCCCCC)OC(CO)[C@@H](O)C1O", "note": "(some centres unmarked) [Compound E3, Di-N-octanoyl-tunicamycin]", "RTI (Relative Therapeutic Index)": 1026}, {"smiles": "CCCCCCCCC(=O)NC1C(OC2OC(C[C@@H](O)[C@H]3O[C@@H](n4ccc(=O)[nH]c4=O)[C@H](O)[C@@H]3O)C(O)C(O)[C@H]2NC(=O)CCCCCCCC)OC(CO)[C@@H](O)C1O", "note": "(some centres unmarked) [Compound E4, Di-N-nonanoyl-tunicamycin]", "RTI (Relative Therapeutic Index)": 33333}, {"smiles": "CCCCCCCCCC(=O)NC1C(OC2OC(C[C@@H](O)[C@H]3O[C@@H](n4ccc(=O)[nH]c4=O)[C@H](O)[C@@H]3O)C(O)C(O)[C@H]2NC(=O)CCCCCCCCC)OC(CO)[C@@H](O)C1O", "note": "(some centres unmarked) [Compound E5, Di-N-decanoyl-tunicamycin]", "RTI (Relative Therapeutic Index)": 2051}, {"smiles": "CCCCCCCCCCC(=O)NC1C(OC2OC(C[C@@H](O)[C@H]3O[C@@H](n4ccc(=O)[nH]c4=O)[C@H](O)[C@@H]3O)C(O)C(O)[C@H]2NC(=O)CCCCCCCCCC)OC(CO)[C@@H](O)C1O", "note": "(some centres unmarked) [Compound E6, Di-N-undecanoyl-tunicamycin]", "RTI (Relative Therapeutic Index)": 513}, {"smiles": "CCCCCCCCCCCC(=O)NC1C(OC2OC(C[C@@H](O)[C@H]3O[C@@H](n4ccc(=O)[nH]c4=O)[C@H](O)[C@@H]3O)C(O)C(O)[C@H]2NC(=O)CCCCCCCCCCC)OC(CO)[C@@H](O)C1O", "note": "(some centres unmarked) [Compound E7, Di-N-dodecanoyl-tunicamycin]", "RTI (Relative Therapeutic Index)": 8}, {"smiles": "NC1C(O)[C@H](O)C(CO)O[C@@H]1OC1O[C@H](C[C@@H](O)[C@@H]2O[C@@H](n3ccc(=O)[nH]c3=O)[C@H](O)[C@@H]2O)C(O)C(O)[C@H]1N", "note": "(stereo partly drawn) [D, α-D-glucosamine-(1″-11′)-tunicamyl Uracil Dihydrochloride]", "RTI (Relative Therapeutic Index)": 8}]}]}
